Assay results taken from article PMC10163288.
Some of the results follow.

B1: il10ra_site1_sap_26_mot_HHH_b1_01707_000000240_0001_1_17_H_._HHH_b2_07405_0001_0000500060_0000001_0_0001 (protein)
chain: SSSSDQEFARLMMEALHLAFQLRDPETLRELWELYRRYAEEGDPRYEEALEELLEELRERSSSSS
B2: il10ra_site1_sap_23_mot_HHH_b1_03763_000000278_0001_22_38_H_._HHH_b1_03304_0001_0000100006_0000001_0_0001 (protein)
chain: SSSSDEASREIYELLREAAELDHEGDKEEARRLIEEAQELAEEANDRVLLAVLEVLLKQLRSSSS
B3: il10ra_site1_sap_22_mot_HHH_b2_00943_af2_000000149_0001_1_17_H_._HHH_b2_03328_0001_0000400021_0000001_0_0001 (protein)
chain: SKEEKLEELAEEAGVPPEELKVILRAAEIVAGGDPRRIARLVEIQLRMAGNFSPELRELLEELIR
B4: il10ra_site1_sap_17_mot_2fa031a62b9321f410fa37cb4b35ac9e_0001_af2_000000160_0001_1_14_H_._HHH_b2_02757_af2_0001_0000100001_0000002_0_0001_af2pred_0001 (protein)
chain: SSSSSEEQEEIRKLLEEALKLAREGNPEEAREVLEEALRLAEEAGDTTLAFQVRFLLELLSSSSS
B5: il10ra_site1_sap_14_mot_HHH_b1_02136_af2_000000018_0001_38_52_H_._HHH_b2_04267_0001_0000400040_0000001_0_0001 (protein)
chain: SSSSDARFLVRQAFKAARLVIEQGDEERAEVALRNLESLARINNDEEAEKLLKELEELLGSSSSS
B6: il10ra_site1_normal_mot_HHH_b2_01235_000000294_0001_1_18_H_._HHH_b1_06902_0001_0000600047_0000001_0 (protein)
chain: SSSSSESQELYELLRRISELDHEGNKEEARELIEELQKLIEELNNLNARAVLEALERLVNSSSSS
B7: il10ra_site1_normal_mot_9368472692dc9678e81f248f6367350b_0001_000000260_0001_20_35_H_._HHH_b2_02427_0001_0000200010_0000001_0 (protein)
chain: SSSSSDREEVLELSLEALRLALRGNPEEARKVLEEAAELAEELGDERLLRVIESLLEVLNSSSSS
B8: il10ra_site1_sap_19_mot_HHH_b1_00814_af2_000000078_0001_43_57_H_._HHH_b2_02041_0001_0000100001_0000002_0_0001 (protein)
chain: SSSSSSEAEQHARALLWFARLVSNPEARRIMLELAEEAAEEAGDEELLEEIEEELRKVGSSSSSS
B9: il10ra_site1_normal_mot_HHH_b2_02386_000000054_0001_1_20_H_._HHH_b2_05043_0001_0000500092_0000003_0 (protein)
chain: SSSSTDESYELLRRAIEEVIRLYKEGNPEEAKKVVEEVFRELEELGNPLAARQLEFLRRLLSSSS
B10: il10ra_site1_sap_13_mot_HHH_b2_07784_af2_000000103_0001_19_36_H_._HHH_b2_04412_af2_0001_0000600023_0000001_1_0001 (protein)
chain: SSSSDEEEEELKELLREAKELIEEGNPQEAIEVLRRAVRLALRLGDEEALQEIWELVHRLKSSSS
B11: il10ra_site1_sap_19_mot_HHH_b1_07211_af2_000000161_0001_24_40_H_._HHH_b2_03175_af2_0001_0000300016_0000001_0_0001 (protein)
chain: SSSSSDASRRVYELLRRAAEADHEGDKEKAEEILEEAEELAEEGNNRILAWLVEWLLRRISSSSS
B12: il10ra_site1_sap_17_mot_HHH_b2_03425_000000200_0001_22_39_H_._HHH_b2_08248_0001_0000600033_0000001_0_0001_af2pred_0001 (protein)
chain: SSSSSSEEEAERAVRFLLEAAKQIEDEEVVKLALYDAKAVAEDLNDEELRELVEKVEEELSSSSS
B13: il10ra_site1_sap_26_mot_HHH_b2_05111_af2_000000002_0001_42_56_H_._HHH_b1_05767_af2_0001_0000300004_0000002_0_0001 (protein)
chain: SSSSSDITEEIMELIREFMELLKRGDEEEAQEVVERAEELARESGNRLLLWQIEWLKRLTSSSSS
B14: il10ra_site1_normal_mot_2c1a291787c6f40772924d4e9068d803_0001_af2_000000222_0001_34_48_H_._HHH_b1_03643_af2_0001_0000400018_0000002_0_af2pred_0001 (protein)
chain: SSSSSDDRVLELAARALALATREGDEERARRLFELLIRLYREGDPEVEEELEKLAREVLESSSSS
B15: il10ra_site1_sap_12_mot_HHH_b1_03613_af2_000000245_0001_1_20_H_._HHH_b1_00600_af2_0001_0000100001_0000002_0_0001_af2pred_0001 (protein)
chain: SSSSSEELEIRALLRKAKLAVEAGDPEAARIALEWAEKLARELGDEELLREIEELLEKLEKSSSS
B16: il10ra_site1_sap_18_mot_HHH_b1_02665_000000293_0001_1_18_H_._HHH_b2_04412_af2_0001_0000100001_0000001_0_0001 (protein)
chain: SSSSDAEELAEEVIEELEELRKRGNHQEVFEAIEEAIKRLIELNDQEALRLLLRFLRELLSSSSS
B17: il10ra_site1_sap_9_mot_HHH_b1_00666_000000226_0001_43_56_H_._HHH_b1_00849_0001_0000300010_0000001_0_0001_af2pred_0001 (protein)
chain: SSPEEAQKLLEEAEELAEEQNDEKARIAVRFLKLSDEDARKRNNEEAVRAVAWAAEALLQILRKS
B18: il10ra_site1_normal_mot_8756ee2cf497b5429c717dfc0c0bcfd6_0001_000000186_0001_1_13_H_._HHH_b2_02451_af2_0001_0000900015_0000001_0 (protein)
chain: SSSSDESQEVIEALRQVVELLQEGDEEEAEELAEEALRIARELGNDVLVVQLEYALRRARSSSSS
B19: il10ra_site1_normal_mot_HHH_b1_04275_000000150_0001_22_39_H_._HHH_b2_01516_af2_0001_0000400013_0000002_0 (protein)
chain: SSSSDEQQRVLELLLEVFRALLRGDPEEAEELLREAEELAERLNDERLEEAIRIVREAVEASSSS
B20: il10ra_site1_normal_mot_8756ee2cf497b5429c717dfc0c0bcfd6_0001_000000186_0001_1_13_H_._HHH_b1_06454_0001_0000300028_0000001_0_af2pred_0001 (protein)
chain: SSSSSSSDVFELLREAAELHFEGNPEEARKVLEEAEELAEERGDLTAEAIIRFMLEQASSSSSSS
B21: il10ra_site1_normal_mot_HHH_b2_00800_af2_000000047_0001_1_20_H_._HHH_b1_05749_0001_0000300027_0000001_0 (protein)
chain: SSSSQEEYEFVREIIERAKELFEEGDPEEARRLLEEAEEEAEELGNPLVKFSLEALLKALRSSSS
B22: il10ra_site1_sap_26_mot_HHH_b2_02053_af2_000000006_0001_3_19_H_._HHH_b1_02402_0001_0000100003_0000002_0_0001 (protein)
chain: SSSSDLEELVEAALRLAEQALEAGDPRAARLMLRALEVVLEREGNPELLEEVERLLEEIENSSSS
B23: il10ra_site1_normal_mot_0cd074c2d6d3de76f1399c5a775575d2_0001_1_af2_000000000_0001_16_30_H_._a6da520ff4a02840130205282d0b8d49_0001_0001_0000200007_0000001_0_af2 … (protein)
chain: SREQAILYAAIVASGGDEDRIEHLLEIYYEFTGDPAVKEVLERLRAAKAAGIPAEELLKQLEAEN
B24: il10ra_site1_normal_mot_HHH_b2_03220_af2_000000223_0001_23_40_H_._HHH_b1_02071_0001_0000300027_0000001_0 (protein)
chain: SSSSNERNEEIWELLRRILEAIAEGDEELVEELLEEVRRLIEEANSEVFKFALRALERALKSSSS

What follows are binders tested against il10ra, Q13651 (assay: yeast display titration).

Apparent Kd, inactive:
B1 no binding seen
B2 no binding seen
B3 no binding seen
B4 no binding seen
B5 no binding seen
B6 no binding seen
B7 no binding seen
B8 no binding seen
B9 no binding seen
B10 no binding seen
B11 no binding seen
B12 no binding seen
B13 no binding seen
B14 no binding seen
B15 no binding seen
B16 no binding seen
B17 no binding seen
B18 no binding seen
B19 no binding seen
B20 no binding seen
B21 no binding seen
B22 no binding seen
B23 no binding seen
B24 no binding seen

A run of entries from further up:
Apparent Kd, inactive:
B22 no binding seen
B23 no binding seen
